Results as given in the supplement of paper PMC10849652.
Some of the results follow.

By UniProt entry, the sequences of proteins in these tests, tags left out. Where a name states a change or a piece, a line headed by the entry shows the natural chain unless it says otherwise.
UniProt O15318: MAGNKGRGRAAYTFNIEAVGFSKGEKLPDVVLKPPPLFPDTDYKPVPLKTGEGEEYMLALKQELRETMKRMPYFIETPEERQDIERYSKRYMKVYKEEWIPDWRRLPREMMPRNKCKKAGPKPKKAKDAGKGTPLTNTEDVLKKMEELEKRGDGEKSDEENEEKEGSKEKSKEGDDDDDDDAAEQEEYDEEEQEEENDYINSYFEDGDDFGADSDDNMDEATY
UniProt Q9GZS1, whole entry, looked up: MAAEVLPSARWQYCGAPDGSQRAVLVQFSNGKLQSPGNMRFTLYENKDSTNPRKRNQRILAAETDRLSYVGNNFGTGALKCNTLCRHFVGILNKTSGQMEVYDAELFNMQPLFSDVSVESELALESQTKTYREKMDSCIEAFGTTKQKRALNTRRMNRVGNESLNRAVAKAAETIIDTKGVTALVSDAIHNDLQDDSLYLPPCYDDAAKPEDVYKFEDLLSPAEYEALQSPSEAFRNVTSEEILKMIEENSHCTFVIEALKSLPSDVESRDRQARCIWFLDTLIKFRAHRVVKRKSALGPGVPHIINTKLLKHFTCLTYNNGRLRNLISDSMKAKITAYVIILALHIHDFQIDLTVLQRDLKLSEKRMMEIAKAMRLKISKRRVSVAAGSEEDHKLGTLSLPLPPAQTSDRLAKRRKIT
UniProt O75334: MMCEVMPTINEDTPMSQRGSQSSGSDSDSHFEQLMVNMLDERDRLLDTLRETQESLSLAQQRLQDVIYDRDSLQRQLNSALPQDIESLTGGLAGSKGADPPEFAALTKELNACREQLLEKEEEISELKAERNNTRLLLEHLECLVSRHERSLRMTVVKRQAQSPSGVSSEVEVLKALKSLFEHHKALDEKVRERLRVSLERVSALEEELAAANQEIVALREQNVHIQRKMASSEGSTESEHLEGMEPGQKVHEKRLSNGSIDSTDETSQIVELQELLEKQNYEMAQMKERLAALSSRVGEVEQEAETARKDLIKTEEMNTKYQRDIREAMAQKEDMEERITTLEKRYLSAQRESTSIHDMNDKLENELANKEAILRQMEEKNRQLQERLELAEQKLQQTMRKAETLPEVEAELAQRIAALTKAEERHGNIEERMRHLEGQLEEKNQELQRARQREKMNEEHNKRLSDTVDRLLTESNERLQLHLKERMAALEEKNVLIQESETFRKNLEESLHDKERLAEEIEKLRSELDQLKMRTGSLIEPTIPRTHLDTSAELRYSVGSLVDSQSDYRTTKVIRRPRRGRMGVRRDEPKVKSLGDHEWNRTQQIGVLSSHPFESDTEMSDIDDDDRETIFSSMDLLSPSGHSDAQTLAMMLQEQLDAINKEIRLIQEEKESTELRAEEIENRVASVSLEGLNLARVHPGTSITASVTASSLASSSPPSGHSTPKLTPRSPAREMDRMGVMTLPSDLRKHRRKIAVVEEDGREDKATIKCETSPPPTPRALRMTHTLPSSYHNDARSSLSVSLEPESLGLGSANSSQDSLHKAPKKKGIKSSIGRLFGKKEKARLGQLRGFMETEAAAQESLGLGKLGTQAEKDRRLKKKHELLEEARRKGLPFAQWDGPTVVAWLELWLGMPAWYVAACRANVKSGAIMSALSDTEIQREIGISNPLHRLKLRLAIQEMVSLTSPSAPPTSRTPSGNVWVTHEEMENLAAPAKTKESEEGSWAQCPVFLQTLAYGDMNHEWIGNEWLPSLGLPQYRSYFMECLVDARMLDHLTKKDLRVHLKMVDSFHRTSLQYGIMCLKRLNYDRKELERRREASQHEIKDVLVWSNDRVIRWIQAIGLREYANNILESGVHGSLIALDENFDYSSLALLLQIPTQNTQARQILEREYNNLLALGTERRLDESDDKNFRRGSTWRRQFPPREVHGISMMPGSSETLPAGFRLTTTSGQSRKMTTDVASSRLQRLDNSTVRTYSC
UniProt Q96CD2: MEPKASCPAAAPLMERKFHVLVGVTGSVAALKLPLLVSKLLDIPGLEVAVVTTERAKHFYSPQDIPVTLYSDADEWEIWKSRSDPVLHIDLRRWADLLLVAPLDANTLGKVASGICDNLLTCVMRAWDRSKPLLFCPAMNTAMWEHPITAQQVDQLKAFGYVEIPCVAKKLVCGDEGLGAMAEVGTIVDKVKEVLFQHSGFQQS
UniProt O43660: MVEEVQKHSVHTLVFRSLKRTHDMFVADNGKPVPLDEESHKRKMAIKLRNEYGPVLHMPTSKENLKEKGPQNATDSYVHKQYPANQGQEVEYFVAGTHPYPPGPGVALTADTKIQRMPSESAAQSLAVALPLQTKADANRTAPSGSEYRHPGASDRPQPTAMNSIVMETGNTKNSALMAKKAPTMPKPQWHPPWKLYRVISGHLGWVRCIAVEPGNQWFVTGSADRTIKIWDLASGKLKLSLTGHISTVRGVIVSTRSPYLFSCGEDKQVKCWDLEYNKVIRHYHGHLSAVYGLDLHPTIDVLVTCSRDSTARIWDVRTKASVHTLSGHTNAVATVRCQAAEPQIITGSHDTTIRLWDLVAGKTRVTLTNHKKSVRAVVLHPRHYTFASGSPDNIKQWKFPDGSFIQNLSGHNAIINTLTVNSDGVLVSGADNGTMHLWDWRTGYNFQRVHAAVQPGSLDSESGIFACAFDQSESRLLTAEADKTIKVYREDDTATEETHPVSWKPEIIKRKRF
UniProt P49005: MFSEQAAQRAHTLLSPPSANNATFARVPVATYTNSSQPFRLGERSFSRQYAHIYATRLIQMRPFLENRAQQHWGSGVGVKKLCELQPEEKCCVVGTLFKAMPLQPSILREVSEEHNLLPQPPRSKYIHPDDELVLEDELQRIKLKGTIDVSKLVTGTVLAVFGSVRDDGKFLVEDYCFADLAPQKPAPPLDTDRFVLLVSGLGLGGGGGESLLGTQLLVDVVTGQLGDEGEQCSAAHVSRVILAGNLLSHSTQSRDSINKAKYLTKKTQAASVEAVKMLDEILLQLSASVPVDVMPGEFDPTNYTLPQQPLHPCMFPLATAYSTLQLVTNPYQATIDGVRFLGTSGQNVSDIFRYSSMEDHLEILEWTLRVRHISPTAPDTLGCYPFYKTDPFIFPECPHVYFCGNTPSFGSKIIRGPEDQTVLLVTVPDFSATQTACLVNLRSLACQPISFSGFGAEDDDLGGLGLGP
UniProt Q9BT43: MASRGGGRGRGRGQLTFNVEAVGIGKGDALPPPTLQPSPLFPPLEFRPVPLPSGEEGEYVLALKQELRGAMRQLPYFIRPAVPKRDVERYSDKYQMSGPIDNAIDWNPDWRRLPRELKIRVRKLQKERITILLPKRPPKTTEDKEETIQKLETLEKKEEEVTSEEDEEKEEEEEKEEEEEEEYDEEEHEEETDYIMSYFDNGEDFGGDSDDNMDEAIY
UniProt Q15165: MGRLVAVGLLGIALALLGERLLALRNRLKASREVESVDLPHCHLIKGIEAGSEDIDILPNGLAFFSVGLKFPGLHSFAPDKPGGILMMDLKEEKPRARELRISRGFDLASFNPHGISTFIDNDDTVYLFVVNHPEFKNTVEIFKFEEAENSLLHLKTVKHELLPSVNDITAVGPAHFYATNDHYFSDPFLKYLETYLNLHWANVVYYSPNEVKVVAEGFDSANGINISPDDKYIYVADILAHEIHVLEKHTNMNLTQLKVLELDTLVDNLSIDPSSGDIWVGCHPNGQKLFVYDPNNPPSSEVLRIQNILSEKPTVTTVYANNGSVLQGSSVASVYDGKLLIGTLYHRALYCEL
UniProt Q99575: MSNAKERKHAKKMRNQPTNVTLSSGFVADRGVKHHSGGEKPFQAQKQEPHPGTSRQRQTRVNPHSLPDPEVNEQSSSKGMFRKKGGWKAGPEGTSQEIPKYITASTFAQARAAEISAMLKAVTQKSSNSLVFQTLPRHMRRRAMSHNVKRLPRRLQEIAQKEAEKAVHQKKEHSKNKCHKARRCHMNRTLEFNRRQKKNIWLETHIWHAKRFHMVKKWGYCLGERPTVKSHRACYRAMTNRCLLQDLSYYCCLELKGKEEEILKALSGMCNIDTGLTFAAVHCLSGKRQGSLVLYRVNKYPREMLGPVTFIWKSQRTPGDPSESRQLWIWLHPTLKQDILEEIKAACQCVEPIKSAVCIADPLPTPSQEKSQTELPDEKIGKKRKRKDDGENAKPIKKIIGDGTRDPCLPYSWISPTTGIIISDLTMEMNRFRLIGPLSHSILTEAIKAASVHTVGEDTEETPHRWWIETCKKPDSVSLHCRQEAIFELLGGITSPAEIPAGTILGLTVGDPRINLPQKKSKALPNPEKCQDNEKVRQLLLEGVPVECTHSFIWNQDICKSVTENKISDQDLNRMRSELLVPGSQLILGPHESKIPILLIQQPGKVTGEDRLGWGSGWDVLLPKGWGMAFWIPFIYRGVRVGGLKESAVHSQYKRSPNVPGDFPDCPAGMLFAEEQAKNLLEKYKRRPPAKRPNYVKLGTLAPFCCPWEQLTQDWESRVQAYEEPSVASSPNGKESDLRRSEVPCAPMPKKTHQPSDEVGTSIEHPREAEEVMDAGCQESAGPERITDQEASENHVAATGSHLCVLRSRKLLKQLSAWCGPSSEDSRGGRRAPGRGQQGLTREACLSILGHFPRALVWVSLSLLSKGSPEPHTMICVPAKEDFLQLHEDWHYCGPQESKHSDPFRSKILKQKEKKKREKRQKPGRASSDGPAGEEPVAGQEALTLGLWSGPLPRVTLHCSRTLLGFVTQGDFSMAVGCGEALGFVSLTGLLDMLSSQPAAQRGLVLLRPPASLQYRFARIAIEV
UniProt P05423: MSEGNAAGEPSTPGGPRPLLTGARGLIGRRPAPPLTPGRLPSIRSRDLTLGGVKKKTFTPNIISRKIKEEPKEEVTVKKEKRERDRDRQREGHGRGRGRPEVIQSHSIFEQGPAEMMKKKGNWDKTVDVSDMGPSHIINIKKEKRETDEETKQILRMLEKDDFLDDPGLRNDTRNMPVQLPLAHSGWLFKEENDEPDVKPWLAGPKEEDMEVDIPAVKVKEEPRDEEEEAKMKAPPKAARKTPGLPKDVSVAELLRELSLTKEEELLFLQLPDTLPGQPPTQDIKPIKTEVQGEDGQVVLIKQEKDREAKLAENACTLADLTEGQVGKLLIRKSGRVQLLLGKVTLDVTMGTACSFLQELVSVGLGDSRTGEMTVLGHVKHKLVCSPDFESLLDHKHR
UniProt O15305: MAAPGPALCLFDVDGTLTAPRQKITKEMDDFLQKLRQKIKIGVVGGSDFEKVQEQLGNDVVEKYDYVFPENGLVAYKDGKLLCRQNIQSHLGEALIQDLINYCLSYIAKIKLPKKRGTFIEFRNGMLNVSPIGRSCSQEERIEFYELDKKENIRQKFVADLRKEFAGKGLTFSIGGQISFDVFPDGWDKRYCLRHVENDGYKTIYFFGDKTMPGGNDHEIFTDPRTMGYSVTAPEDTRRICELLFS
UniProt Q04941: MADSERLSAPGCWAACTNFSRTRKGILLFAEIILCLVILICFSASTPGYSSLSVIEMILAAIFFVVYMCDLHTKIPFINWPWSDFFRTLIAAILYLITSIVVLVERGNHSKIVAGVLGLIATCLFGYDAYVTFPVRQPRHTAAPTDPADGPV
UniProt Q8TCS8: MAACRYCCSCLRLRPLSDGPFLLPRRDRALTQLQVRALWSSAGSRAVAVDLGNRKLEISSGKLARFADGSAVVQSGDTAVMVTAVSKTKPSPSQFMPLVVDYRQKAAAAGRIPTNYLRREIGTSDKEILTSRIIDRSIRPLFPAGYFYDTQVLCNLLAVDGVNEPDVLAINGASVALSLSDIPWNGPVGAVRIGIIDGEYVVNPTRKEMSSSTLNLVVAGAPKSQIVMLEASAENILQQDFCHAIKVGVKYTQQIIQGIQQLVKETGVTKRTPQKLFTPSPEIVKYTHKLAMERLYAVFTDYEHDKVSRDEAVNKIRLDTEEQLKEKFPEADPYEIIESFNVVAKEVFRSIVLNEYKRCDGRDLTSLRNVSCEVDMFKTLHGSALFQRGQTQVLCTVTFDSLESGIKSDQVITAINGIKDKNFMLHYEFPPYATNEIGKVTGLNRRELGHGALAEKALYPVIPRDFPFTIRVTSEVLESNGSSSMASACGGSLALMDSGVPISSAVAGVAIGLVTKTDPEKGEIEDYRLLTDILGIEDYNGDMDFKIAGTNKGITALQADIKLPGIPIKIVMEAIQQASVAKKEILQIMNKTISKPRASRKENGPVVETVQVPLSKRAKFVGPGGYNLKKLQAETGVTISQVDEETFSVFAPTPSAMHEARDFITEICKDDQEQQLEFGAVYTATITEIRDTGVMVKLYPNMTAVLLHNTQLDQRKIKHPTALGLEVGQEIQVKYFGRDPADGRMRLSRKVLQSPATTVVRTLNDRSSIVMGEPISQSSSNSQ
UniProt Q9Y535: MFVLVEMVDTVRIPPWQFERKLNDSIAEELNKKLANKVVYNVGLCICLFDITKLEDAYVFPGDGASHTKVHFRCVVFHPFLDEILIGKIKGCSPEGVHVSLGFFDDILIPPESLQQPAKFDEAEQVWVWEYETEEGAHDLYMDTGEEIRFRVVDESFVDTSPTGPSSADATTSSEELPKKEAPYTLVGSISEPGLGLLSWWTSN

Columns and labels:
Assay in all cases: log2 fold change, soluble protein after heating vs DMSO (PISA); higher = thermal stabilisation; K562 lysate, 10 uM; active = over 0.2 and 3.5 SD of the protein, either way, in both replicates (recomputed)
lapatinib = compound: CS(=O)(=O)CCNCc1ccc(-c2ccc3ncnc(Nc4ccc(OCc5cccc(F)c5)c(Cl)c4)c3c2)o1 [lapatinib]
In short: (§1)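 K562 pellets were dounce-homogenised in PBS pH 7.4 containing 1 mM MgCl2, and the crude extract, at 1 mg/mL protein, was exposed to 10 μM compound for 30 min. Aliquots were heated for 3 min across 48°C-58°C, pooled, brought to 0.5% NP-40 at 4°C and spun at 21,000xg for 90 min, with the supernatant taken as soluble protein. TMTpro 16plex LC-MS/MS with equalised channel sums quantified that protein. Values are log-two fold changes in thermal stability relative to solvent controls, taken from duplicates.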

pictilisib = compound: CS(=O)(=O)N1CCN(Cc2cc3nc(-c4cccc5[nH]ncc45)nc(N4CCOCC4)c3s2)CC1 [pictilisib]
In short: as §1

crizotinib = compound: C[C@@H](Oc1cc(-c2cnn(C3CCNCC3)c2)cnc1N)c1c(Cl)ccc(F)c1Cl [crizotinib]
In short: as §1

[1] = compound: C[C@H](C1=CC=C(C=C1)C(=O)NC2=C3C=CNC3=NC=C2)N
In short: as §1

duvelisib = compound: C[C@H](Nc1ncnc2nc[nH]c12)c1cc2cccc(Cl)c2c(=O)n1-c1ccccc1 [duvelisib]
In short: as §1

gandotinib = compound: Cc1cc(Nc2cc(CN3CCOCC3)c3nc(C)c(Cc4ccc(Cl)cc4F)n3n2)n[nH]1 [gandotinib]
In short: as §1

tozasertib = compound: Cc1cc(Nc2cc(N3CCN(C)CC3)nc(Sc3ccc(NC(=O)C4CC4)cc3)n2)n[nH]1 [tozasertib]
In short: as §1

doramapimod = compound: Cc1ccc(-n2nc(C(C)(C)C)cc2NC(=O)Nc2ccc(OCCN3CCOCC3)c3ccccc23)cc1 [doramapimod]
In short: as §1

bafetinib = compound: Cc1ccc(NC(=O)c2ccc(CN3CC[C@H](N(C)C)C3)c(C(F)(F)F)c2)cc1Nc1nccc(-c2cncnc2)n1 [bafetinib]
In short: as §1

[2] = compound: Cc1cccc(CC(=O)N2CCc3c2ccc(-c2cn(C)c4ncnc(N)c24)c3F)n1
In short: as §1

| Target | log2 fold change (lapatinib) | log2 fold change (pictilisib) | log2 fold change (crizotinib) | log2 fold change [1] | log2 fold change (duvelisib) | log2 fold change (gandotinib) | log2 fold change (tozasertib) | log2 fold change (doramapimod) | log2 fold change (bafetinib) | log2 fold change [2] |
| --- | --- | --- | --- | --- | --- | --- | --- | --- | --- | --- |
| PPIB (UniProt P23284) | inactive: -0.021 | inactive: -0.002 | inactive: 0.016 | inactive: -0.014 | inactive: 0.002 | inactive: 0.002 | inactive: 0.022 | inactive: -0.02 | inactive: -0.025 | inactive: -0.014 |
| POGLUT2 (UniProt Q6UW63) | inactive: 0.042 | inactive: -0.01 | inactive: -0.041 | inactive: -0.013 | inactive: 0.005 | inactive: -0.003 | inactive: 0.033 | inactive: 0.011 | inactive: -0.038 | inactive: 0.02 |
| POLR3G (UniProt O15318) | inactive: -0.019 | inactive: 0.044 | inactive: -0.017 | inactive: -0.004 | inactive: 0.006 | inactive: 0.107 | inactive: -0.009 | inactive: -0.009 | inactive: -0.087 | inactive: 0.047 |
| POLR1E (UniProt Q9GZS1) | inactive: -0.033 | inactive: -0.028 | inactive: -0.016 | inactive: 0.02 | inactive: 0 | inactive: -0.054 | inactive: 0.047 | inactive: -0.004 | inactive: -0.061 | inactive: -0.027 |
| PPFIA2 (UniProt O75334) | inactive: -0.014 | inactive: 0.031 | inactive: -0.212 | active: -0.244 | inactive: 0.001 | inactive: 0.139 | inactive: -0.028 | inactive: 0.023 | inactive: 0.019 | inactive: 0.147 |
| PPCS (UniProt Q9HAB8) | inactive: -0.007 | inactive: -0.035 | inactive: -0.057 | inactive: -0.008 | inactive: 0.009 | inactive: -0.086 | inactive: -0.008 | inactive: 0.006 | inactive: -0.042 | inactive: -0.044 |
| PODXL2 (UniProt Q9NZ53) | inactive: 0.167 | inactive: -0.016 | inactive: 0.034 | inactive: -0.01 | inactive: -0.138 | inactive: -0.01 | inactive: 0.055 | inactive: -0.068 | inactive: -0.022 | inactive: 0.014 |
| PLS1 (UniProt Q14651) | inactive: 0.008 | inactive: -0.005 | inactive: -0.018 | inactive: 0.02 | inactive: 0.023 | inactive: -0.023 | inactive: -0.065 | inactive: -0.045 | inactive: -0.002 | inactive: -0.017 |
| POLG2 (UniProt Q9UHN1) | inactive: 0.004 | inactive: -0.022 | inactive: 0.003 | inactive: 0.001 | inactive: 0 | inactive: 0.024 | inactive: -0.036 | inactive: 0.012 | inactive: 0.015 | inactive: -0.082 |
| PPCDC (UniProt Q96CD2) | inactive: -0.023 | inactive: -0.176 | inactive: 0 | active: -0.342 | inactive: 0.062 | inactive: 0.152 | inactive: 0 | inactive: 0.024 | inactive: 0.034 | inactive: 0.19 |
| PLRG1 (UniProt O43660) | inactive: 0.019 | inactive: 0.036 | inactive: 0.003 | inactive: -0.091 | inactive: -0.001 | inactive: 0.037 | inactive: 0 | inactive: 0.011 | inactive: -0.012 | inactive: 0.04 |
| POT1 (UniProt Q9NUX5) | inactive: 0.079 | inactive: -0.008 | inactive: -0.015 | inactive: 0.027 | inactive: -0.036 | inactive: -0.068 | inactive: 0.005 | inactive: 0.06 | inactive: -0.144 | inactive: 0.022 |
| POLR2D (UniProt O15514) | inactive: -0.025 | inactive: -0.087 | inactive: 0.007 | inactive: 0.085 | inactive: -0.025 | inactive: 0.05 | inactive: 0.023 | inactive: -0.034 | inactive: -0.104 | inactive: -0.035 |
| POLD2 (UniProt P49005) | inactive: 0.009 | inactive: -0.03 | inactive: -0.02 | inactive: -0.093 | inactive: 0.02 | inactive: 0.008 | inactive: 0.017 | inactive: 0.013 | inactive: -0.043 | inactive: 0.049 |
| POLR3GL (UniProt Q9BT43) | inactive: -0.045 | inactive: -0.293 | inactive: -0.096 | inactive: 0.107 | inactive: -0.04 | inactive: -0.076 | inactive: -0.061 | inactive: 0.061 | inactive: 0.168 | inactive: -0.203 |
| PLOD1 (UniProt Q02809) | inactive: -0.005 | inactive: 0.017 | inactive: -0.03 | inactive: -0.043 | inactive: -0.003 | inactive: -0.004 | inactive: 0.029 | inactive: 0.015 | inactive: -0.032 | inactive: 0.03 |
| PPIE (UniProt Q9UNP9) | inactive: 0.03 | inactive: 0 | inactive: -0.02 | inactive: -0.234 | inactive: 0.006 | inactive: 0.144 | inactive: 0.014 | inactive: 0.062 | inactive: 0.009 | inactive: 0.102 |
| PON2 (UniProt Q15165) | inactive: -0.033 | inactive: 0.01 | inactive: -0.008 | inactive: 0.084 | inactive: -0.065 | inactive: -0.021 | inactive: -0.035 | inactive: -0.016 | inactive: -0.048 | inactive: -0.074 |
| POP1 (UniProt Q99575) | inactive: -0.007 | inactive: -0.032 | inactive: -0.007 | inactive: 0.032 | inactive: -0.004 | inactive: 0.006 | inactive: 0.013 | inactive: 0.001 | inactive: 0 | inactive: -0.035 |
| POLR2C (UniProt P19387) | inactive: 0.014 | inactive: -0.019 | inactive: -0.017 | inactive: -0.056 | inactive: -0.012 | inactive: -0.009 | inactive: 0.026 | inactive: 0.009 | inactive: -0.039 | inactive: 0.073 |
| POLD1 (UniProt P28340) | inactive: -0.014 | inactive: -0.021 | inactive: -0.022 | inactive: 0.013 | inactive: -0.019 | inactive: -0.061 | inactive: 0.003 | inactive: 0.02 | inactive: -0.022 | inactive: 0.017 |
| POGLUT3 (UniProt Q7Z4H8) | inactive: -0.013 | inactive: 0.011 | inactive: 0.031 | inactive: -0.022 | inactive: -0.03 | inactive: 0 | inactive: -0.059 | inactive: 0.026 | inactive: 0.018 | inactive: 0.035 |
| POLR3D (UniProt P05423) | inactive: 0.246 | inactive: -0.013 | inactive: -0.031 | inactive: -0.099 | inactive: 0.025 | inactive: 0 | inactive: 0 | inactive: 0.015 | inactive: -0.036 | inactive: 0.098 |
| POU2F1 isoform 6 (UniProt P14859) | inactive: 0.014 | inactive: 0.014 | inactive: 0.035 | inactive: 0.076 | inactive: -0.018 | inactive: -0.012 | inactive: 0.013 | inactive: -0.053 | inactive: 0.011 | inactive: -0.06 |
| POLB (UniProt P06746) | inactive: 0.017 | inactive: 0.075 | inactive: -0.003 | inactive: 0.011 | inactive: 0.018 | inactive: -0.041 | inactive: -0.015 | inactive: -0.003 | inactive: -0.024 | inactive: -0.009 |
| PNN (UniProt Q9H307) | inactive: 0.005 | inactive: 0.02 | inactive: 0.077 | inactive: -0.009 | inactive: -0.052 | inactive: 0.053 | inactive: -0.039 | inactive: 0.166 | inactive: 0.014 | inactive: -0.023 |
| PMM2 (UniProt O15305) | inactive: -0.031 | inactive: -0.006 | inactive: -0.001 | inactive: -0.075 | inactive: -0.013 | inactive: 0.037 | inactive: -0.011 | inactive: 0.055 | inactive: 0.018 | inactive: 0.056 |
| PLP2 (UniProt Q04941) | inactive: 0.009 | inactive: -0.064 | inactive: -0.069 | inactive: 0.03 | inactive: -0.258 | inactive: -0.031 | inactive: -0.053 | inactive: 0.014 | inactive: 0.157 | inactive: 0.044 |
| PNPT1 (UniProt Q8TCS8) | inactive: -0.024 | inactive: 0.024 | inactive: -0.014 | inactive: -0.012 | inactive: 0.012 | inactive: 0.012 | inactive: 0.006 | inactive: 0.02 | inactive: -0.02 | inactive: -0.002 |
| POLR3H (UniProt Q9Y535) | inactive: -0.039 | inactive: -0.019 | inactive: -0.082 | inactive: -0.191 | inactive: 0.162 | inactive: 0.022 | inactive: -0.048 | inactive: -0.047 | inactive: -0.023 | inactive: 0.084 |

Two entries from above, tab-delimited.
Target	log2 fold change (lapatinib)	log2 fold change (pictilisib)	log2 fold change (crizotinib)	log2 fold change [1]	log2 fold change (duvelisib)	log2 fold change (gandotinib)	log2 fold change (tozasertib)	log2 fold change (doramapimod)	log2 fold change (bafetinib)	log2 fold change [2]
POP1 (UniProt Q99575)	inactive: -0.007	inactive: -0.032	inactive: -0.007	inactive: 0.032	inactive: -0.004	inactive: 0.006	inactive: 0.013	inactive: 0.001	inactive: 0	inactive: -0.035
POLR2C (UniProt P19387)	inactive: 0.014	inactive: -0.019	inactive: -0.017	inactive: -0.056	inactive: -0.012	inactive: -0.009	inactive: 0.026	inactive: 0.009	inactive: -0.039	inactive: 0.073
